Source: PMC7075897

Legend:
[1] = biological target: T1, EcR (isoform A) fused to APEX2 through a 25 nm GS linker, marked with 3xFLAG (Drosophila melanogaster) (UniProt P34021); test: proximity labelling; APEX2 fused to EcR or Usp, stably expressed in S2 cells; 20E or DMSO 1 h, biotin-phenol 30 min, 1 mM H2O2 5 min; nuclear extract, Streptavidin-Agarose precipitation, LC-MS/MS
T1 sequence: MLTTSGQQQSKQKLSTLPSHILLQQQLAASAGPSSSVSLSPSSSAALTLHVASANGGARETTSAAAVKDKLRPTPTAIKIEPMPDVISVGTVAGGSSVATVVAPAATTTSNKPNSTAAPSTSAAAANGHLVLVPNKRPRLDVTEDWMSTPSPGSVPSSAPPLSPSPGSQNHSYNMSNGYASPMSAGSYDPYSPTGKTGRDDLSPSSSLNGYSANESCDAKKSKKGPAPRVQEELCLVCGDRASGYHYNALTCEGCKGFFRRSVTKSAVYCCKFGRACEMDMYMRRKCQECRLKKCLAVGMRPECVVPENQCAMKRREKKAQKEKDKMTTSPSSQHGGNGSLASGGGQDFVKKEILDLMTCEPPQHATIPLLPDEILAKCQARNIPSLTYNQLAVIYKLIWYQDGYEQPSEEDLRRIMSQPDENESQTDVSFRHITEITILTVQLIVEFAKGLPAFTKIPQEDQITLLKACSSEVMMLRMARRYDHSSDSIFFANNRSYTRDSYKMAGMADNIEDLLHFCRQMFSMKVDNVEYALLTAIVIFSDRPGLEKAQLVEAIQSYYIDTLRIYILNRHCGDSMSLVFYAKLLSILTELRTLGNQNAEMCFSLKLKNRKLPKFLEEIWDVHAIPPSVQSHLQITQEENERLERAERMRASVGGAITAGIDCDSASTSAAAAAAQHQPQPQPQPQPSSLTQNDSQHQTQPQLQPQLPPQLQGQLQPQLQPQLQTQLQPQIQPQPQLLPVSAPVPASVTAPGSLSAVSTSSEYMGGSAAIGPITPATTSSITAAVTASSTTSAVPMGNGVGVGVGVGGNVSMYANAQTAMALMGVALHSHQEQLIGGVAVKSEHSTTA

[2] = biological target: T2, Usp fused to APEX2 through a 25 nm GS linker, marked with 3xFLAG (Drosophila melanogaster) (UniProt P20153); test: as above
T2 sequence: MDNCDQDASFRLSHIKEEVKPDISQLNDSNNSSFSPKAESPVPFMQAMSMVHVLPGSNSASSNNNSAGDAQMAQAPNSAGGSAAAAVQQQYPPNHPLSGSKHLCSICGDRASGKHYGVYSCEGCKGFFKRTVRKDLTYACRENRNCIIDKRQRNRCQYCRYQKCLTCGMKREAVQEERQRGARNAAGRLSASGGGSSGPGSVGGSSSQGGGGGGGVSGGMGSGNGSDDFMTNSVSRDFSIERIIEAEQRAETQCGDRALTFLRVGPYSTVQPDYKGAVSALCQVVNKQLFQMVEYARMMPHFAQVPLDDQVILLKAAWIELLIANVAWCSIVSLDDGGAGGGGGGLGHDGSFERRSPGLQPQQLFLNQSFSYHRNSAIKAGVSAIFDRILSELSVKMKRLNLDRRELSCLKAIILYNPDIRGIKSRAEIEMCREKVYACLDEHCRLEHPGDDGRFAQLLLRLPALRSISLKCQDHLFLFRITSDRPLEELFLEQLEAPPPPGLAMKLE

binding [1]: binds
binding [2]: binds
B1: sle (protein, UniProt Q8INM3 1-1420)
chain: MVVTRARTRRLSLLETDSRPSTPQLDTVAELGTASPRATRRTRLNSSTLDVRTPTRTRRASLARGETPEPTTPSSVKRTARTPAKNTRSVRQQLTLTEEPEENEVKQEKPSPSPSPVPKEGKGKAQRKPSVSPSPGRTLTPNQQSDEKRVTRSMSQTPPMPTRSSSNTPRDLNDSPKVEQKAKPNIKTTPKVAVRLEKLSMDKFSGKKMEKAKPLIVPDELKDNGVVEEQNKSITEAHSQAPETHESAQPDKDAGKQSFLKSFTTLSKIQGSSKALHPDESADTITKITPTSTSKKIEENMDDVFETLRVESPKVERKIETLQKVHTVGTPEIKEKDEPVGVDNEIKTKTETPQKIEPPIIESKVETQQLIDHPQIEKKRDTPQNVSTVDLMDTSPEKDESMEDQEFLDAEDSIVQLEPQTDEPVEKPKELEFVDLDDDEPVFPSEAPKYVEDSKEVHPDDSMDDDKQNKIDVTEVIHLPSIRARAVRSPAVEQKKSVDFNNDTDDLEVEKKRFPKTPGREKVPVCRILTPKPETPLKLALQKGRNSSTPILKDQERGLSNSTEELHPAPPQIDAIKPFDELESKNAKDEMVEQSPMSKQKAENKILARLESFEEDVEDHGNEEENEEEHEEDKSISEFVDLEAEDAGKDYMSGDSMDSSLRREMEENEIPIDGESVGSKDTEESTPEESDGDDSFIVSDNEDEEDLGQLCYSSGEDEIEDAEESEQAERSSVKRRRIIIASPSDEEHDGKVQSNDDSSENKTEKPKNQSNCSSNASKLSEAAQLLNVSEEKSSISETELERSRQVALNELNKSERFNKTETQLDISVMEVDSSDHDEEEKTEKVGAKNNRSLYEIVDSDDGEEQDQDQSDADKPAESENHSEIKKSTSFMDQMSGAKGNKSVYEIMDSYETEDPKEAGKNEESDKDKPAENGKSDKDKQAETEMSDEDKPSEIKSPSTIKKSIISTADEEALLAELASSDLSHLEKMFNPLQKSRRQSLHVPSPELAAKNPKLRRRSERVEVGNDFCPSQSFVDMVAEKKRQKNKRKRLSKSLSGAPEDLEEMEIKHERKRLKSSHGASTDSMEEDNENETMTVAEEHHSDGEVSNGEVPIEEKPTTSSEKPSASELPEEEETVAVEELLMEKPKTCDSPRSEERPTEIVTSKPKGMAPVKVEKTAEYYLAYCHNLLEAANEAKLKEKKEHLASGAKQKKPKRIAAQAPSKLLGTIGSESETNTAKSSKQPPALKKDVKRLQAARQAVSHAVNLLAPPKATEAEPRTLSRKLSPQPPVVDKKSAKQKKGKKKQKPQEASPLKSSDEENHGHRIRTNAGYVTVVDEPPTKVPKIELIKTSSGMVRVEPCTPKQKYFRELPPTPKMHGFREEPGPSGMSRKRAKHAAPKVEHNSAKQAALRFKEQIFARRS

Results are given in words; binding and its absence hold for the method and conditions named. In cells and extracts the contact can be indirect. These calls come from enrichment with a bait or labelling near it, and not all partners need be listed. Tags and fused reporters may be left off the sequences shown.
